The source of these data is US10525115B2 (Immatics Biotechnologies GmbH, priority 2014, dated 2020).

B1: PPIL4 (protein, UniProt Q8WUA2 1-492, looked up)
Peptidyl-prolyl cis-trans …: MAVLLETTLGDVVIDLYTEERPRACLNFLKLCKIKYYNYCLIHNVQRDFIIQTGDPTGTGRGGESIFGQLYGDQASFFEAEKVPRIKHKKKGTVSMVNNGSDQHGSQFLITTGENLDYLDGVHTVFGEVTEGMDIIKKINETFVDKDFVPYQDIRINHTVILDDPFDDPPDLLIPDRSPEPTREQLDSGRIGADEEIDDFKGRSAEEVEEIKAEKEAKTQAILLEMVGDLPDADIKPPENVLFVCKLNPVTTDEDLEIIFSRFGPIRSCEVIRDWKTGESLCYAFIEFEKEEDCEKAFFKMDNVLIDDRRIHVDFSQSVAKVKWKGKGGKYTKSDFKEYEKEQDKPPNLVLKDKVKPKQDTKYDLILDEQAEDSKSSHSHTSKKHKKKTHHCSEEKEDEDYMPIKNTNQDIYREMGFGHYEEEESCWEKQKSEKRDRTQNRSRSRSRERDGHYSNSHKSKYQTDLYERERSKKRDRSRSPKKSKDKEKSKYR
B2: LRRC8D (protein, UniProt Q7L1W4 1-858, looked up)
Volume-regulated anion …: MFTLAEVASLNDIQPTYRILKPWWDVFMDYLAVVMLMVAIFAGTMQLTKDQVVCLPVLPSPVNSKAHTPPGNAEVTTNIPKMEAATNQDQDGRTTNDISFGTSAVTPDIPLRATYPRTDFALPNQEAKKEKKDPTGRKTNLDFQQYVFINQMCYHLALPWYSKYFPYLALIHTIILMVSSNFWFKYPKTCSKVEHFVSILGKCFESPWTTKALSETACEDSEENKQRITGAQTLPKHVSTSSDEGSPSASTPMINKTGFKFSAEKPVIEVPSMTILDKKDGEQAKALFEKVRKFRAHVEDSDLIYKLYVVQTVIKTAKFIFILCYTANFVNAISFEHVCKPKVEHLIGYEVFECTHNMAYMLKKLLISYISIICVYGFICLYTLFWLFRIPLKEYSFEKVREESSFSDIPDVKNDFAFLLHMVDQYDQLYSKRFGVFLSEVSENKLREISLNHEWTFEKLRQHISRNAQDKQELHLFMLSGVPDAVFDLTDLDVLKLELIPEAKIPAKISQMTNLQELHLCHCPAKVEQTAFSFLRDHLRCLHVKFTDVAEIPAWVYLLKNLRELYLIGNLNSENNKMIGLESLRELRHLKILHVKSNLTKVPSNITDVAPHLTKLVIHNDGTKLLVLNSLKKMMNVAELELQNCELERIPHAIFSLSNLQELDLKSNNIRTIEEIISFQHLKRLTCLKLWHNKIVTIPPSITHVKNLESLYFSNNKLESLPVAVFSLQKLRCLDVSYNNISMIPIEIGLLQNLQHLHITGNKVDILPKQLFKCIKLRTLNLGQNCITSLPEKVGQLSQLTQLELKGNCLDRLPAQLGQCRMLKKSGLVVEDHLFDTLPLEVKEALNQDINIPFANGI
B3: GANC (protein, UniProt Q8TET4 1-914, looked up)
Neutral alpha-glucosidase C: MEAAVKEEISLEDEAVDKNIFRDCNKIAFYRRQKQWLSKKSTYQALLDSVTTDEDSTRFQIINEASKVPLLAEIYGIEGNIFRLKINEETPLKPRFEVPDVLTSKPSTVRLISCSGDTGSLILADGKGDLKCHITANPFKVDLVSEEEVVISINSLGQLYFEHLQILHKQRAAKENEEETSVDTSQENQEDLGLWEEKFGKFVDIKANGPSSIGLDFSLHGFEHLYGIPQHAESHQLKNTGDGDAYRLYNLDVYGYQIYDKMGIYGSVPYLLAHKLGRTIGIFWLNASETLVEINTEPAVEYTLTQMGPVAAKQKVRSRTHVHWMSESGIIDVFLLTGPTPSDVFKQYSHLTGTQAMPPLFSLGYHQCRWNYEDEQDVKAVDAGFDEHDIPYDAMWLDIEHTEGKRYFTWDKNRFPNPKRMQELLRSKKRKLVVISDPHIKIDPDYSVYVKAKDQGFFVKNQEGEDFEGVCWPGLSSYLDFTNPKVREWYSSLFAFPVYQGSTDILFLWNDMNEPSVFRGPEQTMQKNAIHHGNWEHRELHNIYGFYHQMATAEGLIKRSKGKERPFVLTRSFFAGSQKYGAVWTGDNTAEWSNLKISIPMLLTLSITGISFCGADIGGFIGNPETELLVRWYQAGAYQPFFRGHATMNTKRREPWLFGEEHTRLIREAIRERYGLLPYWYSLFYHAHVASQPVMRPLWVEFPDELKTFDMEDEYMLGSALLVHPVTEPKATTVDVFLPGSNEVWYDYKTFAHWEGGCTVKIPVALDTIPVFQRGGSVIPIKTTVGKSTGWMTESSYGLRVALSTKGSSVGELYLDDGHSFQYLHQKQFLHRKFSFCSSVLINSFADQRGHYPSKCVVEKILVLGFRKEPSSVTTHSSDGKDQPVAFTYCAKTSILSLEKLSLNIATDWEVRII
B4: DDX46 (protein, UniProt Q7L014 2-1031, looked up)
Probable ATP-dependent RNA …: GRESRHYRKRSASRGRSGSRSRSRSPSDKRSKRGDDRRSRSRDRDRRRERSRSRDKRRSRSRDRKRLRRSRSRERDRSRERRRSRSRDRRRSRSRSRGRRSRSSSPGNKSKKTENRSRSKEKTDGGESSKEKKKDKDDKEDEKEKDAGNFDQNKLEEEMRKRKERVEKWREEQRKKAMENIGELKKEIEEMKQGKKWSLEDDDDDEDDPAEAEKEGNEMEGEELDPLDAYMEEVKEEVKKFNMRSVKGGGGNEKKSGPTVTKVVTVVTTKKAVVDSDKKKGELMENDQDAMEYSSEEEEVDLQTALTGYQTKQRKLLEPVDHGKIEYEPFRKNFYVEVPELAKMSQEEVNVFRLEMEGITVKGKGCPKPIKSWVQCGISMKILNSLKKHGYEKPTPIQTQAIPAIMSGRDLIGIAKTGSGKTIAFLLPMFRHIMDQRSLEEGEGPIAVIMTPTRELALQITKECKKFSKTLGLRVVCVYGGTGISEQIAELKRGAEIIVCTPGRMIDMLAANSGRVTNLRRVTYVVLDEADRMFDMGFEPQVMRIVDNVRPDRQTVMFSATFPRAMEALARRILSKPIEVQVGGRSVVCSDVEQQVIVIEEEKKFLKLLELLGHYQESGSVIIFVDKQEHADGLLKDLMRASYPCMSLHGGIDQYDRDSIINDFKNGTCKLLVATSVAARGLDVKHLILVVNYSCPNHYEDYVHRAGRTGRAGNKGYAYTFITEDQARYAGDIIKALELSGTAVPPDLEKLWSDFKDQQKAEGKIIKKSSGFSGKGFKFDETEQALANERKKLQKAALGLQDSDDEDAAVDIDEQIESMFNSKKRVKDMAAPGTSSVPAPTAGNAEKLEIAKRLALRINAQKNLGIESQDVMQQATNAILRGGTILAPTVSAKTIAEQLAEKINAKLNYVPLEKQEEERQDGGQNESFKRYEEELEINDFPQTARWKVTSKEALQRISEYSEAAITIRGTYFPPGKEPKEGERKIYLAIESANELAVQKAKAEITRLIKEELIRLQNSYQPTNKGRYKVL
B5: ATP8B4 (protein, UniProt Q8TF62 1-1192, looked up)
Probable …: MFCSEKKLREVERIVKANDREYNEKFQYADNRIHTSKYNILTFLPINLFEQFQRVANAYFLCLLILQLIPEISSLTWFTTIVPLVLVITMTAVKDATDDYFRHKSDNQVNNRQSEVLINSKLQNEKWMNVKVGDIIKLENNQFVAADLLLLSSSEPHGLCYVETAELDGETNLKVRHALSVTSELGADISRLAGFDGIVVCEVPNNKLDKFMGILSWKDSKHSLNNEKIILRGCILRNTSWCFGMVIFAGPDTKLMQNSGKTKFKRTSIDRLMNTLVLWIFGFLICLGIILAIGNSIWESQTGDQFRTFLFWNEGEKSSVFSGFLTFWSYIIILNTVVPISLYVSVEVIRLGHSYFINWDRKMYYSRKAIPAVARTTTLNEELGQIEYIFSDKTGTLTQNIMTFKRCSINGRIYGEVHDDLDQKTEITQEKEPVDFSVKSQADREFQFFDHHLMESIKMGDPKVHEFLRLLALCHTVMSEENSAGELIYQVQSPDEGALVTAARNFGFIFKSRTPETITIEELGTLVTYQLLAFLDFNNTRKRMSVIVRNPEGQIKLYSKGADTILFEKLHPSNEVLLSLTSDHLSEFAGEGLRTLAIAYRDLDDKYFKEWHKMLEDANAATEERDERIAGLYEEIERDLMLLGATAVEDKLQEGVIETVTSLSLANIKIWVLTGDKQETAINIGYACNMLTDDMNDVFVIAGNNAVEVREELRKAKQNLFGQNRNFSNGHVVCEKKQQLELDSIVEETITGDYALIINGHSLAHALESDVKNDLLELACMCKTVICCRVTPLQKAQVVELVKKYRNAVTLAIGDGANDVSMIKSAHIGVGISGQEGLQAVLASDYSFAQFRYLQRLLLVHGRWSYFRMCKFLCYFFYKNFAFTLVHFWFGFFCGFSAQTVYDQWFITLFNIVYTSLPVLAMGIFDQDVSDQNSVDCPQLYKPGQLNLLFNKRKFFICVLHGIYTSLVLFFIPYGAFYNVAGEDGQHIADYQSFAVTMATSLVIVVSVQIALDTSYWTFINHVFIWGSIAIYFSILFTMHSNGIFGIFPNQFPFVGNARHSLTQKCIWLVILLTTVASVMPVVAFRFLKVDLYPTLSDQIRRWQKAQKKARPPSSRRPRTRRSSSRRSGYAFAHQEGYGELITSGKNMRAKNPPPTSGLEKTHYNSTSWIENLCKKTTDTVSSFSQDKTVKL
B6: BBS1 (protein, UniProt Q8NFJ9 2-593, looked up)
BBSome complex member BBS1: AAASSSDSDACGAESNEANSKWLDAHYDPMANIHTFSACLALADLHGDGEYKLVVGDLGPGGQQPRLKVLKGPLVMTESPLPALPAAAATFLMEQHEPRTPALALASGPCVYVYKNLRPYFKFSLPQLPPNPLEQDLWNQAKEDRIDPLTLKEMLESIRETAEEPLSIQSLRFLQLELSEMEAFVNQHKSNSIKRQTVITTMTTLKKNLADEDAVSCLVLGTENKELLVLDPEAFTILAKMSLPSVPVFLEVSGQFDVEFRLAAACRNGNIYILRRDSKHPKYCIELSAQPVGLIRVHKVLVVGSTQDSLHGFTHKGKKLWTVQMPAAILTMNLLEQHSRGLQAVMAGLANGEVRIYRDKALLNVIHTPDAVTSLCFGRYGREDNTLIMTTRGGGLIIKILKRTAVFVEGGSEVGPPPAQAMKLNVPRKTRLYVDQTLREREAGTAMHRAFQTDLYLLRLRAARAYLQALESSLSPLSTTAREPLKLHAVVQGLGPTFKLTLHLQNTSTTRPVLGLLVCFLYNEALYSLPRAFFKVPLLVPGLNYPLETFVESLSNKGISDIIKVLVLREGQSAPLLSAHVNMPGSEGLAAA

The first series has as its system primary AML samples. Kind of series: HLA class I ligandome analysis (W6/32 immunoaffinity purification, LC-MS/MS) of primary AML samples. Set-up: species or system human. The settings on record: source protein (LiTAA); AML patients (n=15).
Regarding B1, the “Number of positive AMLs” value stood at 3.
Regarding B2, the “Number of positive AMLs” value was determined as 3.
On to B3, for which the “Number of positive AMLs” value is given as 3.
In the case of B4, the “Number of positive AMLs” value worked out at 3.
Consider B5, for which the “Number of positive AMLs” value came to 3.
B6: the “Number of positive AMLs” value came to 3.

Still in this series, the particulars now being: source protein (LiTAA); representation frequency in AML patients (n=15).
Regarding B1, the rep. frequency result is “[20.0%]”.
On to B2, for which the rep. frequency result is “[20.0%]”.
The same measure, in the same setting: the entry for B3 is “[20.0%]”.
In the case of B4, the rep. frequency entry is “[20.0%]”.
B5: the rep. frequency entry was “[20.0%]”.
For the molecule B6, the rep. frequency result is “[20.0%]”.
